A short description of the first data set: Anti-corrosion testing in hydrochloric acid. As to conditions: 0.4 g test compound in 100 mls 15% hydrochloric acid, 80°C, 16 hours.
As for `CCCCCCCCCCN1CCCC1=O` [N-decyl-2-pyrrolidone], the “Weight Loss” value is 4.10%.
As for `CCN1CCCC1=O` [N-ethyl pyrrolidone], the “Weight Loss” value amounted to 14.56%.
As to `O=C1CCCN1C1CCCCC1` [N-cyclohexyl pyrrolidone, reference compound], the “Weight Loss” value is 10.97%.
Turning to `C#CCO` [Propargyl alcohol], the “Weight Loss” value is given as 0.21%.
As to `COCCN1CCCC1=O` [N-methoxyethyl pyrrolidone], the “Weight Loss” value came to 14.16%.
On the same count and under the same terms, under `CCCCCCCCCCCCN1CCCC1=O` [N-dodecyl-2-pyrrolidone] stands 5.95%; under `CCCCCCCCN1CCCC1=O` [N-octyl-2-pyrrolidone], 4.20%.
As to `CCCCCCCCCCCCCCN1CCCC1=O` [N-tetradecyl-2-pyrrolidone], the “Weight Loss” value is 14.82%.
Same read-out and setting: as for `CN1CCCC1=O` [N-methyl pyrrolidone], the figure is 14.55%; as for `O=C1CCCN1CCO` [N-hydroxyethyl pyrrolidone], 15.57%.

Still in this data set, the particulars now being: 5% HCl solution, 16 hours; interpolation of curve of Figure 1.
Consider `CCCCCCCCCN1CCCC1=O` [N-nonyl-2-pyrrolidone], for which the “corrosion inhibition (% weight loss curve)” value is “at least as effective as the N-octyl or the N-decyl species”.

These data come from EP0311632B1, “SURFACE ACTIVE LACTAMS” (priority 1986, dated 1988).
